Assay results from PMC6753076.

Sequences of proteins named here, by UniProt entry; tags and fusion partners are left off.
UniProt P32754: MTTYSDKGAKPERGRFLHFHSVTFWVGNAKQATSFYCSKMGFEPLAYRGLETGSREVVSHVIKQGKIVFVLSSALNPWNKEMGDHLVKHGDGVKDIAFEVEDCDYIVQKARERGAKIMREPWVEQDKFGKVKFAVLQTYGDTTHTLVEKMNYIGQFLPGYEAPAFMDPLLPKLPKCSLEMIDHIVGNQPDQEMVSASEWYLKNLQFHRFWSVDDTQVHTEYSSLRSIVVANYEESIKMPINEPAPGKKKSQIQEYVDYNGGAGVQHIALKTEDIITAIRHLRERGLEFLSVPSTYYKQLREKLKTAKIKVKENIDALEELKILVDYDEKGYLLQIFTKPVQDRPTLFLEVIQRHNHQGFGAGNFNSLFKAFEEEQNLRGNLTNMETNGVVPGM
UniProt Q9BYT3: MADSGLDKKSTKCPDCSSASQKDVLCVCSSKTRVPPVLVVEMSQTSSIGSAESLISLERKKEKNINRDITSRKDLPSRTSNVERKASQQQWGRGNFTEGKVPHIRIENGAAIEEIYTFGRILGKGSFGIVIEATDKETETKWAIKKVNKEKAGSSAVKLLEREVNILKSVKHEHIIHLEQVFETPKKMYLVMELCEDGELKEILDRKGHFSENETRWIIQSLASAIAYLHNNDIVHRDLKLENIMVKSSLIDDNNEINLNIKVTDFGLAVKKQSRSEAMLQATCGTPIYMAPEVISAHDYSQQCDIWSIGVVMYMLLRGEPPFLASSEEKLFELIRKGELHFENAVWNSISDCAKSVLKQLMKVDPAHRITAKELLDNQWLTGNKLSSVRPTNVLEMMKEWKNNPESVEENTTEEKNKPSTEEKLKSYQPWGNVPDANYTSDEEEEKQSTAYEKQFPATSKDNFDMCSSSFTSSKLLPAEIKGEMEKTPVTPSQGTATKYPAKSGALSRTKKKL

Key:
[1] = target: 4-hydroxyphenylpyruvic acid dioxygenase (HPD), endogenous human (human (endogenous in HEK293T and LO2)) (UniProt P32754); experiment: affinity purification with mass spectrometry; HPD immunoprecipitated from HEK293T cells; bands cut from SDS-PAGE, trypsin digest, LC-MS/MS (Orbitrap Elite), Mascot search
[2] = target: 4-hydroxyphenylpyruvic acid dioxygenase (HPD), endogenous human (human (endogenous in HEK293T and LO2)) (UniProt P32754); experiment: as above; remark: listed apart in the source

Row | Molecule | binding [1] | binding [2]
1 | serine/threonine kinase 33 (STK33), endogenous human (from UniProt Q9BYT3 1-514) | binds | 
2 | tetratricopeptide repeat domain 36 (TTC36), endogenous human (protein, UniProt A6NLP5 1-189) MGTPNDQAVLQAIFNPDTPFGDIVGLDLGEEAEKEEREEDEVFPQAQLEQSKALELQGVMAAEAGDLSTALERFGQAICLLPERASAYNNRAQARRLQGDVAGALEDLERAVELSGGRGRAARQSFVQRGLLARLQGRDDDARRDFERAARLGSPFARRQLVLLNPYAALCNRMLADMMGQLRRPRDSR |  | binds

Read-outs that look alike come from different tables or passages of the source. These are yes or no findings as the source states them, for the method shown. Binding seen in cells or lysates may run through a third protein. Here binding means that the protein was enriched with, or labelled near, the bait; the list need not be complete.
